IC50 data for 1 compound are collected here from US5432175A, “Pyridine and pyridine N-oxide derivatives of diaryl methyl piperidines or piperazines, and compositions and methods of use thereof” (Schering Corporation, priority 1993, dated 1995).

This test deals with PAF-induced platelet aggregation. In words: Platelet Aggregation Assay (in vitro PAF antagonism, human platelet-rich plasma). The class given is cell-based. The settings on record: 37° C., PAF 1-5×10^-8 M. As for the experimental part:
Platelet Aggregation Assay
Platelet-activating factor (PAF) causes aggregation of platelets by a receptor-mediated mechanism. Therefore, PAF-induced platelet aggregation provides a simple and convenient assay to screen compounds for PAF antagonism.
Blood was centrifuged at 110×g for 15 min. and the supernatant platelet-rich plasma (PRP) carefully transferred into a polypropylene tube. Platelet-poor-plasma (PPP) was prepared by centrifuging PRP at 12,000×g for 2 min. PRP was used within 3 hr. of drawing the blood.
PAF was dissolved in chloroform:methanol (1:1, v/v) at a concentration of 2 mg/ml and stored at -70° C. An aliquot of this solution was transferred to a polypropylene tube and dried under a flow of nitrogen gas. […] The solution was sonicated for 5 min. This stock solution was further diluted to appropriate concentrations in Hepes-saline-BSA buffer. Collagen and adenosine diphosphate (ADP) were purchased as solutions. […]
When an aggregating agent such as PAF is added to PRP, platelets aggregate. An aggregometer quantifies this aggregation by measuring and comparing light (infra-red) transmission through PPP and PRP. […] Values for inhibition were calculated by comparing rates of aggregation obtained in the absence and the presence of the compound. […]

`CCOC(=O)N1CCC(=C2c3ccc(Cl)cc3CCc3cccnc32)CC1` [reference compound]: it took 175 µM to reach half-maximal inhibition (IC50).
